Reference: patent US12414991B2, “Azobenzene derivatives, process for their preparation and their use for therapeutic treatment associated with ionizing radiations” (CENTRE NATIONAL DE LA RECHERCHE SCIENTIFIQUE, priority 2019, dated 2025)
Some entries share one result that the patent states for a list of compounds.

Experiment: Quantification of ionizing-radiation-induced isomerization (molecular activation) by HPLC
Assay type: physicochemical
Conditions: cis-MAzo, gamma irradiation, under 5 Gy, PBS, FIG. 1f
Procedure: Gamma ray irradiation. Gamma irradiation was performed with a Cesium-137 source (IBL 637) providing 662 keV photons at a dose rate of approximately 1 Gy/min. Radiation doses are expressed in Gray ([…]).
Gd-containing compounds (GdAzo or GdFAzo) and control compounds (Azo or FAzo) (50 μM, 200 μL, PBS) were introduced into two 96-well microplates (10 wells for each compound). Both microplates were first irradiated under UV light (365 nm, 0.817 mW·cm^−2, 5 min). One microplate (plate 1) was then kept in the dark and used as a non-irradiated control while the second (plate 2) was irradiated with an increment of ionizing radiation doses (2 Gy, 3 Gy, 5 Gy and 10 Gy). After each irradiation, absorbance spectrophotometric and HPLC injection (method C) analyses were performed on the non-irradiated (plate 1) and irradiated (plate 2) compounds. A 26 min time lag between UV irradiation of plates 1 and 2 was used to allow analysis of the unirradiated control compounds (plate 1) at the same time as the ionizing irradiated compounds (plate 2) after UV irradiation. […] The absorbance spectra were plotted by the mean of triplicates. The relative amount of each isomer was obtained by HPLC (detection at the isosbestic point wavelength under elution conditions) and the molecular activation (%) was determined by the difference in the proportion of trans isomer in the medium (3 independent experiments).

Row | Substance | molecular activation (difference in the proportion of trans isomer)
1 | Copper 4-(N-(1,4,7,10-tetraazacyclododecane-1,4,7-triacetic acid-10-glutaryl)-ethoxyamine)-4′-butoxyazobenzene [CuAzo] | < 10%
2 | Gallium 4-(N-(1,4,7,10-tetraazacyclododecane-1,4,7-triacetic acid-10-glutaryl)-ethoxyamine)-4′-butoxyazobenzene [GaAzo] | < 10%
